The target in assay [1] is HA-GSK3β-G1 (1-420aa) from HEK293T cells (UniProt P49841). Kind of assay: co-IP; HEK293T (text: HEK293FT) cells transfected with HA-GSK3β and Flag-USP10 domains, or Flag-USP10 and HA-GSK3β domains; immunoprecipitation and western blot of cell lysates. (In general: In western blotting, separated proteins are transferred to a membrane and probed.)
The target in assay [2] is Ubiquitin-specific protease 10 (USP10), endogenous (human (endogenous in 143B and U2OS)) (UniProt Q14694). Briefly: co-IP; endogenous proteins; 143B and U2OS lysates (RIPA buffer) immunoprecipitated with anti-IgG, anti-USP10 or anti-GSK3β antibodies and protein A/G agarose overnight at 4 °C; western blot.
In assay [3] the target is Flag-USP10-U1 (1-798aa) from HEK293T cells (UniProt Q14694). Kind of assay: co-IP; HEK293T (text: HEK293FT) cells transfected with HA-GSK3β and Flag-USP10 domains, or Flag-USP10 and HA-GSK3β domains; immunoprecipitation and western blot of cell lysates.

Protein sequences, listed by entry. Tags and fused reporters are not part of them. Lines headed by an entry give the natural chain unless they say otherwise; changes in a name come on top.
UniProt P49841: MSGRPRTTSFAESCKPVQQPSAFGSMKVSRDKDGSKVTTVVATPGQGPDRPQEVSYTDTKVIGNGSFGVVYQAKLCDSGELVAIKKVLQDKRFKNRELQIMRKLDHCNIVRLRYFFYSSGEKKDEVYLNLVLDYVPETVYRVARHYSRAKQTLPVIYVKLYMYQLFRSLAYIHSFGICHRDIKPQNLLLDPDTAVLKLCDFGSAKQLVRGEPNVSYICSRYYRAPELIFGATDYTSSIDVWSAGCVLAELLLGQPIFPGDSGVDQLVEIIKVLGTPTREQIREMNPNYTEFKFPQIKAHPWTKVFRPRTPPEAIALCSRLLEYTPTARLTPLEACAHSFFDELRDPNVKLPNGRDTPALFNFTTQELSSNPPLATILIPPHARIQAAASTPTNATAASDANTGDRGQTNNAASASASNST
UniProt Q14694: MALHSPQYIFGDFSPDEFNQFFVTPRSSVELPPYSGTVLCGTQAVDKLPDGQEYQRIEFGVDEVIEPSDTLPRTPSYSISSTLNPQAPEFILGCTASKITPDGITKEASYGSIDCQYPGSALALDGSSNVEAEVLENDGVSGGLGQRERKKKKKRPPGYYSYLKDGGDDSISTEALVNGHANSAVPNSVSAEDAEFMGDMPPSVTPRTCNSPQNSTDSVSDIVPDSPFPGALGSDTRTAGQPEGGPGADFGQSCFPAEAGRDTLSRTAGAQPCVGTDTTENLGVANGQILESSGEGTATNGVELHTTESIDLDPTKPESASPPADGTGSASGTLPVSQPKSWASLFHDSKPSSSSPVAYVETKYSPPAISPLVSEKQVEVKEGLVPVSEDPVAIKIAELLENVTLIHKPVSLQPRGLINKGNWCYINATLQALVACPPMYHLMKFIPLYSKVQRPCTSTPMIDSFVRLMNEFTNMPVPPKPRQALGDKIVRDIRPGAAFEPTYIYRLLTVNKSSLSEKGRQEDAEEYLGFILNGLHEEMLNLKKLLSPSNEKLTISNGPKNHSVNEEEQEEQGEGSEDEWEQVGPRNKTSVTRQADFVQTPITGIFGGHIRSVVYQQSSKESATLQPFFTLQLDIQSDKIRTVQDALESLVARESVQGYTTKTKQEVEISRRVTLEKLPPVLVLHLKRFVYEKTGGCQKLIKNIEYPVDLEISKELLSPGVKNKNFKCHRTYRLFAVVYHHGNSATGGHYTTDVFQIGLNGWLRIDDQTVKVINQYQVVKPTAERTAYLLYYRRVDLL

These are yes or no findings as the source states them, for the method shown. In cells and extracts the contact can be indirect. Some results given as binding are weak or reduced against the parent protein; the word gives no strength.

Turning to “Flag-USP10-U4 (415-798aa) (from UniProt Q14694 415-798) (domain or fragment)”, in assay [1], the binding entry was “binds”. In the case of “Glycogen synthase kinase 3β (GSK3β), endogenous (from UniProt P49841 1-420) (enzyme)”, the binding entry in assay [2] is given as “binds”. On to “HA-GSK3β-G3 (56-340aa) (from UniProt P49841 56-340) (domain or fragment)”, for which the binding entry in assay [3] is given as “binds”.

The record behind these values is PMC11367994.
